Assay [1] addresses hBAFF-R-hFc-His fusion protein (human) (UniProt Q96RJ3). The assay can be described thus: flow cytometry, scFv on yeast, off-rate challenge. (In general: In flow cytometry, cells or beads pass a laser one at a time.)
For assay [2] the target is unchanged. Put plainly: yeast display flow cytometry: ianalumab-based scFv on yeast, biotinylated hBAFFR-Fc read as Binding-PE against Expression FITC; left panel, before the arrow to t = 120' (no time label on this sheet).

Protein sequences, listed by entry. Tags and fused reporters are not part of them. Lines headed by an entry give the natural chain unless they say otherwise; changes in a name come on top.
UniProt Q96RJ3: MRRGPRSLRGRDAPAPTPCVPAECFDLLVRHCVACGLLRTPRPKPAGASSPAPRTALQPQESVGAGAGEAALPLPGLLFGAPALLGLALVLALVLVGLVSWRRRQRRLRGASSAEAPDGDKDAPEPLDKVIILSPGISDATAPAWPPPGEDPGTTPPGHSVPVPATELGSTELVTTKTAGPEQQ

These are yes or no findings as the source states them, for the method shown. Some binding calls cover weakened binding; strength is not graded here.

B1: ianalumab-based scFv benchmark control (scFv, V domains shown)
VH: QVQLQQSGPGLVKPSQTLSLTCAISGDSVSSNSAAWGWIRQSPGRGLEWLGRIYYRSKWYNSYAVSVKSRITINPDTSKNQFSLQLNSVTPEDTAVYYCARYQWVPKIGVFDSWGQGTLVTVSS
VL: DIVLTQSPATLSLSPGERATLSCRASQFILPEYLSWYQQKPGQAPRLLIYGSSSRATGVPARFSGSGSGTDFTLTISSLEPEDFAVYYCQQFYSSPLTFGQGTKVEIK
For the molecule B1, the binding entry in assay [1] and in assay [2] was “binds” in each case.

The values are drawn from US20240360223A1.
